Assay results: publication PMC10553830, “Functional and structural analyses reveal that a dual domain sialidase protects bacteria from complement killing through desialylation of complement factors” (PLOS Pathogens, 2023)

Molecular target: T1, recombinant CBM protein (N-terminal carbohydrate-binding module of PG0352) (Porphyromonas gingivalis W83) (UniProt Q7MX62)
T1 sequence: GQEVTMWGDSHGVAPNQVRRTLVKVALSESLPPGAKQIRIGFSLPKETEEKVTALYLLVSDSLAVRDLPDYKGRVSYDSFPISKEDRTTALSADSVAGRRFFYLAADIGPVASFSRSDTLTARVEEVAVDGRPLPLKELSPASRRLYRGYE
Assay: affinity purification with mass spectrometry; rCBM (or control PG1589) bound to Ni-NTA agarose, incubated with human serum diluted to 50% (v/v) in PBS overnight at 4°C; washed with 300 mM NaCl, 50 mM NaH2PO4, 10 mM imidazole, pH 8.0; SDS-PAGE, bands excised for nano-LC-MS/MS; only the target purified

Q: For “immunoglobulin lambda-like polypeptide 5 (from UniProt B9A064 36-214)”, which binding is on record?
A: binds

These are yes or no findings as the source states them, for the method shown. In cells and extracts the contact can be indirect. These calls come from enrichment with a bait or labelling near it, and not all partners need be listed.
